Binding data for 1 substance are collected here from publication PMC9239171.

Sequences of proteins named here, by UniProt entry; tags and fusion partners are left off. A change or cut given only in a name is not applied to a line headed by its entry. A line that says so, or that is headed by a name, gives the form on record, which may keep a tag or linker.
UniProt O75190: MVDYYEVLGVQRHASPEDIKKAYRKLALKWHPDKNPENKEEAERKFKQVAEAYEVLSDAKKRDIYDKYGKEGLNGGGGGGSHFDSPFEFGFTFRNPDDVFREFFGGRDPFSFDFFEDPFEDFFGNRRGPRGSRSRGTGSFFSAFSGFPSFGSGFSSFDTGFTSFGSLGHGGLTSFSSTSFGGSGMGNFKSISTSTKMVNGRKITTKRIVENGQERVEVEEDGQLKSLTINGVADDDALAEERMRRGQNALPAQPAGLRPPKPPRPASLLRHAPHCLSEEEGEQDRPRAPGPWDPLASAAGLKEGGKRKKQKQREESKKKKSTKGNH
human DNAJB6(S) (DNAJB6-FLAG, short isoform) (O75190, form named): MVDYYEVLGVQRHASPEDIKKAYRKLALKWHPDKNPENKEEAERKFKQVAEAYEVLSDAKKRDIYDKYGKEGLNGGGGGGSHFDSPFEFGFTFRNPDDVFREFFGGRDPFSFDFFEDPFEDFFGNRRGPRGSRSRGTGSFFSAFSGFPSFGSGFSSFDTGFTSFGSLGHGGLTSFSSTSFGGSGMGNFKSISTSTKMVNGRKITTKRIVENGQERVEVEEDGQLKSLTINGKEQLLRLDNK
UniProt O95817: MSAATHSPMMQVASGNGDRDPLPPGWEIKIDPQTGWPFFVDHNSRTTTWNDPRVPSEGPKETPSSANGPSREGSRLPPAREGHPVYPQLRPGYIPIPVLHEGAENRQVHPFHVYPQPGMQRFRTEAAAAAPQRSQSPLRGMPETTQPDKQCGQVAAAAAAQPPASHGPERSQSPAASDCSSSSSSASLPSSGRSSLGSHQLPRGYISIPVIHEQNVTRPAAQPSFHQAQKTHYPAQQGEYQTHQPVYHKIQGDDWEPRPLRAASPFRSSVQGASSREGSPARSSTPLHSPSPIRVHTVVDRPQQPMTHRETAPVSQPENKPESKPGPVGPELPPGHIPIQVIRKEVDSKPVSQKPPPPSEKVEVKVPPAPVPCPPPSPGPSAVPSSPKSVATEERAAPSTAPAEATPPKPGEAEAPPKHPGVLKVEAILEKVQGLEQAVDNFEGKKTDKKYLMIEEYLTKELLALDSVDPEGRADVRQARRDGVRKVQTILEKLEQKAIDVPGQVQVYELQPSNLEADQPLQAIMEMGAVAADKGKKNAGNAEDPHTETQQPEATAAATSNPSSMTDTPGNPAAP

The target of test [1] is human DNAJB6(L) (DNAJB6-FLAG, long isoform) (human) (UniProt O75190). Nature of the test: co-IP; DNAJB6-FLAG and BAG3-HA constructs transfected singly or together into HEK293 cells; FLAG Immunoprecipitation Kit (Sigma); blots with anti-FLAG and anti-HA; the results call it an in vitro protein pulldown assay.
Test [2] has as its target human DNAJB6(S) (DNAJB6-FLAG, short isoform) (human) (UniProt O75190). Described as above.

No constants are given. Whether binding was seen depends on the method and setting. In cells and extracts the contact can be indirect. Some entries that bind do so weakly or less than the wild type.

Consider “human BAG3 (BAG3-HA) (from UniProt O95817 1-575)”, for which the binding result in test [1] and in test [2] was “binds” throughout.
